For this assay, the target named is GST-Cpgp40 (recombinant Cryptosporidium parvum gp40 fused to glutathione S-transferase) (Cryptosporidium parvum). Kind of assay: affinity purification with mass spectrometry; purified GST-Cpgp40 (GST as control) immobilised on Glutathione Sepharose 4B beads, 4 °C 2 h; incubated with HCT-8 cell membrane proteins (1.5 mg/ml); SDS-PAGE with silver staining, LC-MS/MS; only the target purified.

No constants are given. Whether binding was seen depends on the method and setting. In cells and extracts the contact can be indirect. These calls come from enrichment with a bait or labelling near it, and not all partners need be listed.

B1: protein S100-A8 (S100/A8) (protein, UniProt P05109 1-93)
chain: MLTELEKALNSIIDVYHKYSLIKGNFHAVYRDDLKKLLETECPQYIRKKGADVWFKELDINTDGAVNFQEFLILVIKMGVAAHKKSHEESHKE
Consider B1, for which the binding entry was “binds”.

(Values after paper PMC10953254.)
